# Read-outs that look alike come from different tables or passages of the source. Some results were stated once for a whole list of compounds, not compound by compound. For some of these results: At least one structure is not confirmed: it was looked up by name or label, or the drawing left a doubt.
# How the values were obtained:
# Phytophthora infestans = format: in vivo
# Septoria tritici = assay: In vivo test on Septoria tritici (leaf spot of wheat); conditions: dose of 1 g/l; wheat plants (Darius) sprayed 24 hours before contamination; marking 20 days after contamination
# Pyricularia oryzae = format: in vivo; conditions: dose of 1 g/l; rice sprayed 24 hours before contamination; reading 6 days after contamination
# [1] = dose of 1 g/l, tomato plants (Marmande) sprayed 24 hours before infecting, seven days after infecting
SMILES,protection (Phytophthora infestans; [1]),protection (Phytophthora infestans; in vivo),protection (Septoria tritici),protection (Pyricularia oryzae)
CSC1=NC(C)(c2ccccc2)C(=S=O)N1Nc1ccccc1 (racemic) [Compound 2],at least 75%,–,–,–
CSC1=NC(C)(c2ccccc2)C(=O)N1Nc1ccccc1C (racemic) [Compound 15],–,at least 75%,–,–
CSC1=NC(C)(c2ccccc2)C(=O)N1c1ccccc1 (racemic) [Compound 30],–,at least 75%,–,–
CSC1=NC(C)(c2ccccc2)C(=O)N1N(C=O)c1ccccc1 (racemic) [Compound 39],–,at least 75%,–,–
CSC1=NC(C)(c2ccccc2)C(=O)N1Nc1ccccn1 (racemic) [Compound 45],–,at least 75%,–,–
CC1(c2ccccc2)N=C(SC(F)F)N(Nc2ccccc2)C1=O (racemic) [Compound 75],–,at least 75%,–,–
CC1=NC(C)(c2ccc(Br)cc2)C(=O)N1Nc1ccccc1 (racemic) [Compound 213],at least 75%,–,–,–
CCC1=NC(C)(c2ccc(Cl)cc2)C(=O)N1Nc1ccccc1 (racemic) [Compound 221],at least 75%,–,–,–
CCC1=NC(C)(c2ccc(Br)cc2)C(=O)N1Nc1ccccc1 (racemic) [Compound 224],at least 75%,–,–,–
CCC1=NC(C)(c2ccccc2)C(=O)N1Nc1ccc(Cl)cc1 (racemic) [Compound 249],at least 75%,–,–,–
COC1=NC(C)(c2ccccc2)C(=O)N1Nc1ccccc1 (racemic) [Compound 401],at least 75%,–,at least 75%,at least 75%
COC1=NC(C)(c2ccc(Cl)cc2)C(=O)N1Nc1ccccc1 (racemic) [Compound 404],at least 75%,–,at least 75%,at least 75%
COC1=NC(C)(c2ccccc2)C(=O)N1Nc1ccccc1C (racemic) [Compound 405],at least 75%,–,at least 75%,at least 75%
COC1=NC(C)(c2ccccc2)C(=O)N1Nc1ccccc1Cl (racemic) [Compound 408],at least 75%,–,–,–
COC1=NC(C)(c2ccccc2)C(=O)N1Nc1ccc(Cl)cc1 (racemic) [Compound 409],at least 75%,–,at least 75%,–
COC1=NC(C)(c2ccc(Cl)cc2)C(=O)N1Nc1cccc(Cl)c1 (racemic) [Compound 415],at least 75%,–,–,–
COC1=NC(C)(c2ccc(Cl)cc2)C(=O)N1Nc1cccc(C)c1 (racemic) [Compound 417],–,–,–,at least 75%
COC1=NC(C)(c2ccc(C)cc2)C(=O)N1Nc1ccccc1 (racemic) [Compound 418],at least 75%,–,–,–
COC1=NC(C)(c2ccc(F)cc2)C(=O)N1Nc1cccc(C)c1 (racemic) [Compound 421],at least 75%,–,–,–
COC1=NC(C)(c2ccc(F)cc2)C(=O)N1Nc1ccccc1C (racemic) [Compound 423],–,–,at least 75%,at least 75%
COC1=NC(C)(c2ccc(C)cc2)C(=O)N1Nc1cccc(Cl)c1 (racemic) [Compound 425],–,–,–,at least 75%
COC1=NC(C)(c2ccc(C)cc2)C(=O)N1Nc1ccc(F)cc1 (racemic) [Compound 428],at least 75%,–,–,–
"CSC1=NC(C)(c2ccccc2)C(=O)N1Nc1ccccc1 (stereo not shown) [Compound 9, 4-methyl-2-methylthio-4-phenyl-1-phenylamino-2-imidazolin-5-one]",at least 75%,–,–,–

SMILES,protection (Phytophthora infestans; [1]),protection (Phytophthora infestans; in vivo),protection (Septoria tritici),protection (Pyricularia oryzae)
"CSC1=NC(C)(c2ccc(F)cc2)C(=O)N1Nc1ccccc1 (stereo not shown) [Compound 68, 4-Methyl-2-methylthio-4-(4-fluorophenyl)-1-phenylamino-2-imidazolin-5-one]",at least 75%,–,–,–
CSC1=NC(C)(c2ccccc2)C(=O)N1Nc1ncccc1C (stereo not shown) [Compound 84],at least 75%,–,–,–
CSC1=NC(C)(c2ccc(Cl)cc2)C(=O)N1Nc1ccccc1 (stereo not shown) [Compound 85],at least 75%,–,–,–
CSC1=NC(C)(c2ccc(Cl)cc2)C(=O)N1Nc1ncccc1C (stereo not shown) [Compound 90],at least 75%,–,–,–
CSC1=NC(C)(c2ccc(F)cc2)C(=O)N1Nc1ccccc1C (stereo not shown) [Compound 94],at least 75%,–,–,–
CSC1=NC2(CCc3ccccc32)C(=O)N1Nc1ccccc1 (stereo not shown) [Compound 98],at least 75%,–,–,–
CSC1=NC(C)(c2ccc(F)cc2)C(=O)N1Nc1cccc(C)c1 (stereo not shown) [Compound 107],at least 75%,–,–,–
CSC1=NC(C)(c2ccccc2)C(=O)N1Nc1cccc(F)c1 (stereo not shown) [Compound 108],at least 75%,–,–,–
"CC1=NC(C)(c2ccccc2)C(=O)N1Nc1ccccc1 (stereo not shown) [Compound 201, 2,4-dimethyl-4-phenyl-1-phenylamino-2-imidazolin-5-one]",at least 75%,–,–,–
CCC1=NC(C)(c2ccccc2)C(=O)N1Nc1ccccc1 (stereo not shown) [Compound 202],at least 75%,–,–,–
COCC1=NC(C)(c2ccccc2)C(=O)N1Nc1ccccc1 (stereo not shown) [Compound 218],at least 75%,–,–,–
"CC1(c2ccc(F)cc2)N=CN(Nc2ccccc2)C1=O [Compound 254, (4R,4S)-4-(4-fluorophenyl)-4methyl-1-phenylamino-2-imidazolin-5-one]",at least 75%,–,–,–
COC1=NC2(CCCc3ccccc32)C(=O)N1Nc1ccccc1 (stereo not shown) [Compound 407],at least 75%,–,–,at least 75%
COC1=NC2(CCc3ccccc32)C(=O)N1Nc1ccccc1 (stereo not shown) [Compound 410],at least 75%,–,–,–
COC1=NC(C)(c2ccc(F)cc2)C(=O)N1Nc1cccc(Cl)c1 (stereo not shown) [Compound 429],at least 75%,–,–,at least 75%
COC1=NC(C)(c2ccc(F)cc2)C(=O)N1Nc1ccc(C)cc1 (stereo not shown) [Compound 431],at least 75%,–,–,at least 75%
COC1=NC(C)(c2ccccc2)C(=O)N1Nc1cccc(F)c1 (stereo not shown) [Compound 433],at least 75%,–,–,at least 75%
COC1=NC(C)(c2ccc(Oc3ccccc3)cc2)C(=O)N1Nc1ccccc1C (stereo not shown) [Compound 435],–,–,at least 75%,at least 75%
COC1=NC(C)(c2ccc(F)cc2)C(=O)N1Nc1ccc(Cl)cc1 (stereo not shown) [Compound 436],at least 75%,–,at least 75%,–
COC1=NC(C)(c2ccccc2)C(=O)N1Nc1ccc(F)cc1 (stereo not shown) [Compound 437],at least 75%,–,at least 75%,–
COC1=NC(C)(c2ccccc2)C(=O)N1Nc1ccc(C)cc1 (stereo not shown) [Compound 439],at least 75%,–,–,–
COC1=NC(C)(c2ccc(F)cc2)C(=O)N1Nc1ccccc1F (stereo not shown) [Compound 440],–,–,at least 75%,at least 75%
COC1=NC(C)(c2ccc(C)cc2)C(=O)N1Nc1ccccc1F (stereo not shown) [Compound 441],–,–,–,at least 75%

SMILES,protection (Phytophthora infestans; [1]),protection (Phytophthora infestans; in vivo),protection (Septoria tritici),protection (Pyricularia oryzae)
COC1=NC(C)(c2ccccc2)C(=O)N1Nc1cccc(C)c1C (stereo not shown) [Compound 444],at least 75%,–,at least 75%,–
COC1=NC(C)(c2ccccc2)C(=O)N1Nc1ncccc1Cl (stereo not shown) [Compound 445],–,–,at least 75%,–
COC1=NC(C)(c2ccccc2)C(=O)N1Nc1cccc(C)c1 (stereo not shown) [Compound 446],at least 75%,–,–,at least 75%
COC1=NC(C)(c2ccccc2)C(=O)N1Nc1cccc(Cl)c1 (stereo not shown) [Compound 448],at least 75%,–,at least 75%,–
COC1=NC(C)(c2ccc(F)cc2)C(=O)N1Nc1ncccc1C (stereo not shown) [Compound 449],at least 75%,–,–,–
COC1=NC(C)(c2ccc(Cl)cc2)C(=O)N1Nc1cccc(F)c1 (stereo not shown) [Compound 451],at least 75%,–,–,–
COC1=NC(C)(c2cccc(Cl)c2)C(=O)N1Nc1cccc(C)c1 (stereo not shown) [Compound 453],at least 75%,–,–,–
COC1=NC(C)(c2cccc(F)c2)C(=O)N1Nc1cccc(F)c1 (stereo not shown) [Compound 458],at least 75%,–,at least 75%,–
COC1=NC(C)(c2ccccc2)C(=O)N1N(C(C)=O)c1ccccc1 (stereo not shown) [Compound 459],–,–,–,at least 75%
COC1=NC(C)(c2cccc(F)c2)C(=O)N1Nc1cccc(Cl)c1 (stereo not shown) [Compound 460],at least 75%,–,at least 75%,–
COC1=NC(C)(c2cccc(C)c2)C(=O)N1Nc1ccccc1 (stereo not shown) [Compound 461],at least 75%,–,–,at least 75%
COC1=NC(C)(c2cccc(C)c2)C(=O)N1Nc1cccc(F)c1 (stereo not shown) [Compound 462],at least 75%,–,at least 75%,–
COC1=NC(C)(c2ccc(F)cc2F)C(=O)N1Nc1cccc(F)c1 (stereo not shown) [Compound 465],at least 75%,–,–,at least 75%
COC1=NC(C)(c2ccccc2F)C(=O)N1Nc1ccccc1 (stereo not shown) [Compound 471],–,–,at least 75%,at least 75%
COC1=NC(C)(c2ccc(F)cc2F)C(=O)N1Nc1cccc(Cl)c1 (stereo not shown) [Compound 473],at least 75%,–,at least 75%,–
COC1=NC(C)(c2ccc(C(C)C)cc2)C(=O)N1Nc1ccccc1 (stereo not shown) [Compound 475],–,–,at least 75%,–
COC1=NC(C)(c2ccc(C(C)C)cc2)C(=O)N1Nc1cccc(F)c1 (stereo not shown) [Compound 477],–,–,at least 75%,–
COC1=NC(C)(c2cccc(C)c2)C(=O)N1Nc1cccc(Cl)c1 (stereo not shown) [Compound 478],–,–,at least 75%,at least 75%
COC1=NC(C)(c2ccc(C(C)C)cc2)C(=O)N1Nc1cccc(Cl)c1 (stereo not shown) [Compound 479],–,–,at least 75%,–
COC1=NC(C)(c2ccc(Br)cc2)C(=O)N1Nc1ccccc1 (stereo not shown) [Compound 480],–,–,at least 75%,–
COC1=NC(C)(c2ccc([N+](=O)[O-])cc2)C(=O)N1Nc1ccccc1 (stereo not shown) [Compound 481],at least 75%,–,–,–
COC1=NC(C)(c2cccc(Oc3ccccc3)c2)C(=O)N1Nc1ccccc1 (stereo not shown) [Compound 482],–,–,–,at least 75%
COC1=NC(C)(c2cccs2)C(=O)N1Nc1ccccc1 (stereo not shown) [Compound 486],at least 75%,–,at least 75%,–

# Reference: US6344564B1, “Fungicidal 2-imidazolin-5-ones and 2-imidazoline-5-thiones” (priority 1992, dated 2002)
